Test results: PubChem BioAssay AID2685 (National Center for Advancing Translational Sciences (NCATS), 2010)
Some of the results follow. Shown are side measurements of this screen, not its main read-out; they come without a call. Compounds called inactive in the main read-out are mostly missing here. Words in brackets tell the shape of the fitted curve; partial curves, single points and poor fits give uncertain potencies.

Assay: qHTS Assay for Lipid Storage Modulators in Drosophila S3 Cells;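 as to cell number change: cells counted by Cell Tracker Red CMTPX staining in the red channel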
Conditions: BODIPY lipid droplet fluorescence, 18-24 h; for cell number change: measured here: cell count max response, cells fed with added oleic acid
Outline: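 Drosophila S3 cells got compounds at several concentrations plus oleic acid (400 uM solution). Laser-scanning cytometry with 488 nm excitation read lipid droplets at 500-530 nm and cells at 575-640 nm. Percent activity was relative to 20 uM Triacsin C.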

[1] = measured here: cell number channel AC50, cells fed with added oleic acid
[2] = measured here: lipid fluorescence (Fed channel) AC50, cells fed with added oleic acid

| Structure (SMILES) | cell number change [%] | AC50 [1] | AC50 [2] |
| --- | --- | --- | --- |
| CCOc1ccc(NS(=O)(=O)c2ccc(-c3cnc(C4CC4)o3)cc2)cc1 | -16.2 | – | – |
| CC(=O)Oc1cc2c(cc1Cl)C1(CC(c3ccccc3Cl)O2)CC(C)(C)NC(=S)N1 (stereo not drawn) | 36.3 | 29.1 µM [rising, single point] | 29.1 µM [rising, single point] |
| COc1ccc(CCN2C(=O)C(Oc3ccccc3C)C2c2ccc3c(c2)OCO3)cc1 (stereo not drawn) | -1.02 | – | 0.651 µM [rising, full curve, poor fit] |
| CC1=CC(C)C2(CO)COC(c3ccc(O)cc3)C1C2C (stereo not drawn) | -15.6 | – | 0.184 µM [falling, full curve] |
| O=C(N/N=C/c1cccc(OC(=O)c2cccc(Br)c2)c1)c1ccncc1 | – | 0.164 µM [rising, full curve, poor fit] | 29.1 µM [falling, partial curve, poor fit] |
| CCCCCC1CCC(C(=O)NNC(=S)NCC)CC1 (stereo not drawn) | -44.7 | 25.9 µM [falling, single point] | – |
| Cc1ccc(S(=O)(=O)N2CCCC(C)C2)cc1 (stereo not drawn) | 11.4 | – | 1.84 µM [rising, partial curve, poor fit] |
| C=CCn1c(=S)[nH]c2cc(-c3ccccc3)sc2c1=O | 1.32 | – | – |
| CC1=C(C(=O)Nc2ccccn2)C(c2ccccc2Cl)NC(=S)N1 (stereo not drawn) | 24.5 | – | 29.1 µM [rising, single point] |
| Cc1cc(=O)oc(C)c1C(=O)N1CCN(Cc2ccc3c(c2)OCO3)CC1 | 4.74 | – | – |
| Nc1cc(S(=O)(=O)N2CCCCC2)ccc1Oc1ccc(Cl)cc1 | 61.7 | 5.8 µM [rising, full curve] | – |
| C1=C(c2ccccc2)N2CCN=C2S1 | 11.2 | – | 2.91 µM [falling, single point] |
| Cc1cc(C(=O)NNC(=O)c2nn(C)c(=O)c3ccccc23)c(C)o1 | 39.5 | 1.64 µM [rising, full curve] | – |
| COc1ccc(CC(=O)NNC(=S)Nc2ccccc2)cc1Cl | -62.3 | 32.6 µM [falling, partial curve] | 32.6 µM [falling, single point] |
| COc1cccc(CN(C)C(=O)c2cc(COc3ccc4ncccc4c3)on2)c1 | -43.6 | 18.4 µM [falling, single point] | – |
| COc1ccccc1-c1cc(-c2ccccc2)nc(=O)[nH]1 | 37.5 | 13 µM [rising, single point] | 0.58 µM [rising, single point] |
| COC(=O)C1=C2SC(C)C(=O)N2C(N)=C(C#N)C1c1ccc(OC)c(OC)c1 (stereo not drawn) | – | 0.82 µM [rising, single point] | – |
| O=C1[C@H]2[C@@H](/C=C/c3ccccc3)N3C(=O)CN(Cc4ccccn4)C(=O)[C@@]3(Cc3ccccc3)[C@H]2C(=O)N1c1ccccc1 | 22.5 | 6.51 µM [rising, partial curve] | – |
| OC(COC(c1ccc(Cl)cc1)c1ccc(Cl)cc1)CN1CCN(c2ccccn2)CC1 (stereo not drawn) | -48.4 | 29.1 µM [falling, single point] | 18.4 µM [falling, single point] |

Three neighbouring records from above, for reference:

| Structure (SMILES) | cell number change [%] | AC50 [1] | AC50 [2] |
| --- | --- | --- | --- |
| COC(=O)C1=C2SC(C)C(=O)N2C(N)=C(C#N)C1c1ccc(OC)c(OC)c1 (stereo not drawn) | – | 0.82 µM [rising, single point] | – |
| O=C1[C@H]2[C@@H](/C=C/c3ccccc3)N3C(=O)CN(Cc4ccccn4)C(=O)[C@@]3(Cc3ccccc3)[C@H]2C(=O)N1c1ccccc1 | 22.5 | 6.51 µM [rising, partial curve] | – |
| OC(COC(c1ccc(Cl)cc1)c1ccc(Cl)cc1)CN1CCN(c2ccccn2)CC1 (stereo not drawn) | -48.4 | 29.1 µM [falling, single point] | 18.4 µM [falling, single point] |

(more compounds)

| Structure (SMILES) | cell number change [%] | AC50 [1] | AC50 [2] |
| --- | --- | --- | --- |
| Cc1ccc(Cl)cc1NC(=O)c1ccccn1 | -44 | 23.1 µM [falling, single point] | – |
| CCOc1ccc(NC(=S)Nc2ccc(Br)cc2Cl)cc1 | 31.9 | 12.6 µM [rising, single point] | 12.6 µM [rising, single point] |
| C=CCn1c(C(CCCC)CC(O)COCC(C)C)n[nH]c1=S (stereo not drawn) | – | – | 0.651 µM [rising, full curve, poor fit] |
| CC12CCC(=O)C=C1CCC1C2CCC2(C)C1CC[C@]2(O)C(=O)CO (stereo partly drawn) | 9.41 | – | – |
| COc1ccc(CCN2C(=O)CC(N3CCN(C/C=C/c4ccccc4)CC3)C2=O)cc1OC (stereo not drawn) | -6.53 | – | – |
| O=C(c1cccc(S(=O)(=O)N2CCCCC2)c1)N1CCN(Cc2ccccc2)CC1 | -20.4 | – | 20.6 µM [falling, single point] |
| O=C1N/C(=N/N=C/c2ccco2)SC1Cc1ccccc1 (stereo not drawn) | -36.8 | 3.66 µM [falling, full curve] | 3.66 µM [falling, full curve] |
| COc1ccc(OC)c(/C=N\NC(=O)CC(=O)NCCc2ccccc2)c1 | 11.3 | 4.61 µM [rising, partial curve, poor fit] | – |
| CCc1cccc(N(CC(=O)NC2CCCCC2)C(=O)c2csnn2)c1 | 21.8 | 0.116 µM [rising, full curve, poor fit] | – |
| Cc1cccc(NC(=O)C2CCCN2S(=O)(=O)c2ccc(F)cc2)c1C (stereo not drawn) | 4.5 | – | 18.4 µM [rising, single point] |
| CCN(CC(=O)Nc1ccccc1OC)C(=O)/C=C/c1cccs1 | – | 2.91 µM [rising, single point] | – |
| CCCN1CCN(C(=O)C2CCCN(c3ncnc4c3nc3n4CCCCC3)C2)CC1 (stereo not drawn) | -4.72 | – | – |
| COc1ccc(-n2nc(C(=O)NCC(=O)NCCCN3CCC(C)CC3)c3ccccc3c2=O)cc1Cl | -12.7 | – | 29.1 µM [rising, single point] |
| O=C(COC(=O)C1CCCCC1)Nc1ccc(N2CCCCC2)cc1 | -20.6 | – | 0.0206 µM [falling, full curve] |
| Cc1ccc(C)c(SCC(=O)NC(=O)NCc2ccccc2)c1 | – | – | 0.058 µM [rising, full curve, poor fit] |
| O=C(CCc1nc(-c2ccccc2Cl)no1)NCc1ccco1 | -31.4 | 0.092 µM [falling, full curve] | 0.092 µM [falling, full curve] |
| Cc1ccc(C(C)NC(=O)/C(C#N)=C\c2c(C)[nH]c3ccccc23)cc1 (stereo not drawn) | 14.5 | 0.0164 µM [rising, partial curve, poor fit] | 6.51 µM [rising, single point] |
| O=C(O)c1ccccc1OCCOCCOc1ccccc1C(=O)O | 6.09 | – | 0.146 µM [falling, full curve, poor fit] |
| COc1cc(-c2nnc(COC(=O)c3cc(C)nc4ccc(C)cc34)o2)cc(OC)c1OC | – | – | 0.651 µM [rising, single point] |
